Measurements from US10329532B2, “Method to direct differentiation of pluripotent stem cells into functional heart muscle” (GEORG-AUGUST-UNIVERSITÄT GÖTTINGEN STIFTUNG ÖFFENTLICHEN …, priority 2013, dated 2019).
For at least one compound, name, drawing or mass did not settle the structure.

Columns and labels:
Format in all cases: cell-based, human
[1] = test system: bioengineered heart muscle (BHM); experiment: qPCR gene expression in BHM; conditions: day 13; 2 μmol/L dorsomorphin from day 6 onwards
Experimental: (§1) BHM formation was optimized on the HES2 line. HES2 hPSCs were suspended 1:1 in PSC-medium minus FGF-2 and HFF-conditioned medium (HFF-CM—harvested from 5 day confluent irradiated HFF cultures) with 10 ng/mL FGF2 and mixed with a collagen I hydrogel. For the HES3, and hIPS lines 10 μM Y-27632 was also added to the medium. The collagen I matrix was formulated with acid-soluabilized bovine collagen I (Devro) with an equi-volume of 2×DMEM (Gibco) and neutralized using 0.1 M sodium hydroxide. The hPSC/collagen I matrix was formulated to give a final collagen I concentration of 1 mg/ml and 5×10^5 hPSC per 170 μl. For the HES3 and hIPS lines 1×10^6 and 0.5×10^6 cells were used respectively per 170 μl. For each BHM, 170 μl of the hPSC/collagen I matrix was pipette into circular molds (i.d.=4 mm, o.d.=10 mm) fabricated using poly(dimethylsiloxane) (Sylgard, Dow Corning). After 10 min of culture in the incubator at 37° C. the collagen gelled and 1.25 ml of 1:1 human foreskin fibroblast-conditioned medium with 10 ng/ml FGF2 was added per BHM. The following day the BHMs were rinsed with RPMI medium and then differentiated as indicated in each figure, with 1.25 ml of medium per BHM. At day 13 the BHM were transferred onto mechanical stimulators as indicated. The protocol details for each figure are outlined in FIG. 8.
Cells, BHMs or human heart biopsies were harvested and stored at −80° C. until RNA extraction using Trizol following manufacturer's instructions (Applied Biosystems). 1 μg of RNA was then treated with DNAse (Roche) followed by cDNA synthesis using a High Capacity cDNA Reverse Transcription Kit (Applied Biosystems). qPCR was performed using Fast SYBR Green Master Mix (Applied Biosystems) on a 384-well format AB7900 HT (Applied Biosystems). Gene expression was normalized using 2^−ΔCt or 2^−ΔΔCt using GAPDH as the housekeeping gene which we found to be consistently expressed between conditions in all of our experiments. Primer details are given in below Table 1.

[2] = test system: bioengineered heart muscle (BHM); experiment: Isometric contraction measurements of BHM (twitch tension/force of contraction) in organ baths; conditions: 2 μmol/L dorsomorphin from day 6 onwards; data not shown
Experimental: Briefly, contraction experiments are performed in organ baths at 37° C. under constant bubbling with 5% CO2 and 95% O2 to maintain a physiological pH in Tyrode's solution containing (all in mM): 120 NaCl, 1 MgCl2, 0.2 CaCl2, 5.4 KCl, 22.6 NaHCO3, 4.2 NaH2PO4, 5.6 glucose and 0.56 ascorbate. Calcium is adjusted using a 0.2 M calcium chloride solution. All BHM are analysed at 3 Hz with 5 ms square pulses of 200 mA electrical current in order to pace at approximately the embryonic heart rate. Stimulation frequency is altered to confirm proper force-frequency response (Bowditch mechanism). BHM are mechanically stretched at intervals of 125 μm until the maximum twitch force is observed (force-length response; Frank-Starling mechanism).
Briefly, all contraction experiments are performed in organ baths at 37° C. and physiological pH in Tyrode's solution containing (all in mM): 120 NaCl, 1 MgCl2, 0.2 CaCl2, 5.4 KCl, 22.6 NaHCO3, 4.2 NaH2PO4, 5.6 glucose and 0.56 ascorbate. Calcium is adjusted using a 0.2 M calcium chloride solution. All BHM are analysed at 3 Hz with 5 ms square pulses of 200 mA electrical current in order to pace at approximately the embryonic heart rate. […] Subsequently, BHM are subjected to different calcium concentrations (0.2, 0.4, 0.8, 1.2, 1.6, 2.0, 2.4 mM) and the twitch force is recorded. […]

[3] = test system: bioengineered heart muscle (BHM); experiment: Flow cytometry of disassociated BHM (cell composition, cardiomyocyte size, cell cycle, cell number); conditions: 2 μmol/L dorsomorphin from day 6 onwards
Experimental: as §1
For the initial BHM digestion protocol, BHMs were disassociated in 0.025 mg/ml Liberase TM (Roche), 30 mM 2,3-butanedione monoxime at 37° C. for 60 min in PBS. To preserve cell surface markers, BHM was disassociated using the same protocol as for the 2D digestion.
Cells were stained either live or fixed using Histofix for 10 min at room temperature or ethanol. The cells were stained in 5% FBS in PBS (membrane blocking buffer) for cell surface markers (excluding TRA-1-60) and blocking buffer for internal markers. The cells were then stained with primary antibodies in blocking buffer for 45 min followed by secondary antibodies in blocking buffer and Hoechst for 30 min at 4° C. (Table 2). A BD LSRII was used for flow cytometry analysis (BD Biosystems). […]

Structure (SMILES): c1cc(-c2cnn3cc(-c4ccc(OCCN5CCCCC5)cc4)cnc23)ccn1 [dorsomorphin, reference compound]
- ISL1 expression [1]: failed to down regulate ISL1
- expression of EMT associated genes CDH1, CHD2, SNAIL1, TGFβ2 [1]: no alteration
- expression of NKX2-5 and α-MHC [1]: not altered
- BHM responsiveness to isoprenaline [2]: neither a change in BHM responsiveness to isoprenaline
- cardiomyocyte number per BHM [3]: did not alter the cardiomyocyte number
- cardiomyocyte size ([3]; data not shown): nor a change in cardiomyocyte size
- total cell number per BHM and fractions of cardiomyocytes (α-actinin+) and stromal cells (CD90+) ([3]; data not shown): did not change
